No constants are given. Whether binding was seen depends on the method and setting. Some binding calls cover weakened binding; strength is not graded here. Where a sequence is shown, tags or fusion partners need not be part of it.

Experimental findings from PMC8224235 are described below.

In the experiment the target is T1, Ume6-MYC (Ume6 with a carboxyl-terminal 13×MYC tag) (S. cerevisiae) (UniProt P39001).
T1 sequence: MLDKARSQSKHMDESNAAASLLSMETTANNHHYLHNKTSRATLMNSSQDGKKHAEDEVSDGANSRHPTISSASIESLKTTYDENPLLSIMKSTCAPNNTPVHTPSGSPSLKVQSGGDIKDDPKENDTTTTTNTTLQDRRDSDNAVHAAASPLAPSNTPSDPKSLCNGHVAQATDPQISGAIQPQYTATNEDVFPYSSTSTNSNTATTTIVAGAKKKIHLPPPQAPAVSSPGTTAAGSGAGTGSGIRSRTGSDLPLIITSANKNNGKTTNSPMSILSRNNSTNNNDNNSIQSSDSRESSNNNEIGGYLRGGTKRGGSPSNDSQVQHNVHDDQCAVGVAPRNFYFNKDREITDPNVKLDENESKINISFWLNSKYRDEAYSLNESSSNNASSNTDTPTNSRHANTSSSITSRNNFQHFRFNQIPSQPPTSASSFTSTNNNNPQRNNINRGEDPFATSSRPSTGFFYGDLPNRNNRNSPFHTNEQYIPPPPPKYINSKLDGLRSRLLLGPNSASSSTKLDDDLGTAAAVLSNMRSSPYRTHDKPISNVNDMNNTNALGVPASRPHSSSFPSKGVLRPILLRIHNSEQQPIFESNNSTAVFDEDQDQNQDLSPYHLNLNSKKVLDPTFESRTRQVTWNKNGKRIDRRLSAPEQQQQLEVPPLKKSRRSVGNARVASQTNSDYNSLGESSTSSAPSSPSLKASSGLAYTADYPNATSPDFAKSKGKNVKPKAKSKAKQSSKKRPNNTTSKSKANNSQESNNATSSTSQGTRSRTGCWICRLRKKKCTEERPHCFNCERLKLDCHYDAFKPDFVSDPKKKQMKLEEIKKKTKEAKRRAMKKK
The experiment can be described thus: sequential chromatin immunoprecipitation (ChIP re-ChIP); cells cross-linked with 10 mM dimethyl adipimidate, then 1% formaldehyde; chromatin sheared to 300-400 bp; Ume6-MYC precipitated with anti-MYC, eluted and reprecipitated with anti-HA (Ime1-HA or Rpd3-HA); read out by PCR of IME2 and SPO13 promoter DNA against TELVI; cells in YEPD, YPKAc or SPM (1 and 3.5 h).

B1: Rpd3-HA (Rpd3 with a carboxyl-terminal 3×HA tag) (protein, UniProt P32561 1-433)
chain: MVYEATPFDPITVKPSDKRRVAYFYDADVGNYAYGAGHPMKPHRIRMAHSLIMNYGLYKKMEIYRAKPATKQEMCQFHTDEYIDFLSRVTPDNLEMFKRESVKFNVGDDCPVFDGLYEYCSISGGGSMEGAARLNRGKCDVAVNYAGGLHHAKKSEASGFCYLNDIVLGIIELLRYHPRVLYIDIDVHHGDGVEEAFYTTDRVMTCSFHKYGEFFPGTGELRDIGVGAGKNYAVNVPLRDGIDDATYRSVFEPVIKKIMEWYQPSAVVLQCGGDSLSGDRLGCFNLSMEGHANCVNYVKSFGIPMMVVGGGGYTMRNVARTWCFETGLLNNVVLDKDLPYNEYYEYYGPDYKLSVRPSNMFNVNTPEYLDKVMTNIFANLENTKYAPSVQLNHTPRDAEDLGDVEEDSAEAKDTKGGSQYARDLHVEHDNEFY
As to B1, the binding result is reported as “binds”.

B2: Ime1-HA (Ime1 with a carboxyl-terminal 3×HA tag) (protein, UniProt P21190 1-360)
chain: MQADMHGKLHAALEDGFFLFPFEQQQQPNIYYDTTTDQEDRPCFSFGSTISPRSWHFEKSDKIASSQLQNLVHTQPIHLINPQILFNEEFLNLENIDSQPISKETKTTKDCTMATGPERGKKSSESTRSSSLSSLFSNDESASTFHSSFNNHDNFQKSNRNGDDIDISDTIKYETNTNAQKDIKIFQENFEFNEFPYTQDFYPYTTNYTYSKPTNIHESINSKNTDSYSQYQDQFPPHTDNIHSFNNRHYSNHKSTNCNYYNNTSNNNNASDNVYEADPFIDEPQVPSYYYPLEIAFDVEKSPPPSLQKLNSKELEFLKKLNSKLSRYAAAYSFSSSNDQDYYDKVRFQEISYKFSKTYS
With B2, the binding entry is “binds”.
